PubChem BioAssay AID330 (DTP/NCI, 2004)
The list is a part of this screen's results and no random one: it gathers tests that were run many times, whatever their T/C, doses with no T/C, and many T/C values between a quarter and a half above the control. Other doses and runs of a compound stand elsewhere. T/C is the treated group as % of the vehicle group. Some entries give survivors of the animals treated and no T/C: the source holds a T/C of zero for them, seemingly a mark for toxic or unscored doses. Some doses without a T/C left all or most animals alive at the check, yet need not have been tolerated: the source hardly ever lists a survival T/C far under the control, and the zero likely stands for such cases as well. Survivors were counted at the toxicity check, usually on the fifth day, unless a day is given; later deaths do not show. Schedules are NCI's codes, read here as Q, the interval in days (D) or hours (H), X, the number of doses. For survival time, this PubChem deposit counts one and a half times the control or more as active, and values a quarter to a half above the control carry no call in these data; other NCI protocols may use other cut-offs. Some entries hold several experiments; the results are listed from low to high.

Tested on: P388 leukemia ip, CD2F1 mice, survival T/C
Assay: NCI In Vivo Anticancer Drug Screen. Data for tumor model P388 Leukemia (intraperitoneal) in CD2F1 (CDF1) mice
Conditions: T/C endpoint: median survival time, higher T/C = longer survival
[1] = dose: 100.0 mg/kg/injection, schedule: Q01DX005 (ip), vehicle: saline with Tween-80
[2] = dose: 200.0 mg/kg/injection, schedule: Q01DX005 (ip), vehicle: saline with Tween-80
[3] = dose: 240.0 mg/kg/injection, schedule: Q01DX005 (ip), vehicle: Klucel (hydroxypropylcellulose) (HPC)

Compound: O=C1NC(=O)C2C3CCC(C12)C1C2C(=O)NC(=O)C2C31 (stereo unspecified)
- survivor count [1]: 2 of 6
- survivor count [2]: 1 of 6

Compound: COC(=O)/C(=C1/OC(=O)C(c2ccc(OC(C)=O)cc2)=C1O)c1ccc(Cl)cc1
- survivor count (dose: 200.0 mg/kg/injection, schedule: Q01DX009 (ip), vehicle: saline + Tween-80 + alcohol): 2 of 6

Compound: CCn1c(=N)sc2nc3ccccc3n2c1=O
- survivor count [3]: 1 of 6

Compound: Cc1c2ccncc2c(CN(CCCl)CCCl)c2c3ccccc3n(C)c12
- T/C (dose: 2.5 mg/kg/injection, schedule: Q01DX005 (ip), vehicle: saline): 134 % of control
- T/C (dose: 5.0 mg/kg/injection, schedule: Q01DX005 (ip), vehicle: saline): 128 and 135 % of control
- survivor count (dose: 200.0 mg/kg/injection, schedule: Q01DX005 (ip), vehicle: saline): 1 of 6
- survivor count (dose: 400.0 mg/kg/injection, schedule: Q01DX005 (ip), vehicle: saline): 0 of 6

Compound: CNC(=O)OCc1c(COC(=O)NC)c(-c2ccc(Cl)cc2)n(C)c1-c1ccccc1
- T/C (dose: 3.13 mg/kg/injection, schedule: Q01DX009 (ip), vehicle: distilled water + Tween-80): 141 % of control
- T/C (dose: 6.25 mg/kg/injection, schedule: Q01DX009 (ip), vehicle: distilled water + Tween-80): 140 % of control
- T/C (dose: 12.5 mg/kg/injection, schedule: Q01DX009 (ip), vehicle: distilled water + Tween-80): 142 % of control
- T/C (dose: 50.0 mg/kg/injection, schedule: Q01DX009 (ip), vehicle: distilled water + Tween-80): 125 % of control
- survivor count (dose: 100.0 mg/kg/injection, schedule: Q01DX009 (ip), vehicle: distilled water + Tween-80): 5 of 6
- survivor count (dose: 200.0 mg/kg/injection, schedule: Q01DX009 (ip), vehicle: distilled water + Tween-80): 0 of 6

Compound: BrCC[Se](Br)(Br)c1ccccc1
- survivor count (dose: 12.5 mg/kg/injection, schedule: Q01DX009 (ip), vehicle: Klucel (hydroxypropylcellulose) (HPC)): 5 of 6
- survivor count (dose: 25.0 mg/kg/injection, schedule: Q01DX009 (ip), vehicle: Klucel (hydroxypropylcellulose) (HPC)): 1 of 6
- survivor count (dose: 50.0 mg/kg/injection, schedule: Q01DX009 (ip), vehicle: Klucel (hydroxypropylcellulose) (HPC)): 0 of 6
- survivor count (dose: 100.0 mg/kg/injection, schedule: Q01DX009 (ip), vehicle: Klucel (hydroxypropylcellulose) (HPC)): 0 of 6
- survivor count (dose: 200.0 mg/kg/injection, schedule: Q01DX009 (ip), vehicle: Klucel (hydroxypropylcellulose) (HPC)): 0 of 6

Compound: O=C(NCCCCCCCCCCNC(=O)C12CC3CC(CC(C3)C1)C2)C12CC3CC(CC(C3)C1)C2
- survivor count [1]: 6 of 6
- survivor count [2]: 6 of 6

Compound: CC(C)=CCC(OC1OC(CO)C(O)C(O)C1O)C1=CC(=O)c2c(O)ccc(O)c2C1=O (stereo unspecified)
- survivor count (dose: 50.0 mg/kg/injection, schedule: Q04DX002 (ip), vehicle: saline with Tween-80): 0 of 6

Compound: Cc1nc2cc(N(C)C)ccc2c(Cl)c1C(N)=O
- survivor count (dose: 120.0 mg/kg/injection, schedule: Q01DX005 (ip), vehicle: Klucel (hydroxypropylcellulose) (HPC)): 2 of 6
- survivor count [3]: 0 of 6

Compound: CN(C)C(=O)Oc1c(Cc2ccccc2)c(=O)n2c([nH]c3ccccc32)c1C#N
- survivor count (dose: 240.0 mg/kg/injection, schedule: Q01DX005 (ip), vehicle: saline with Tween-80): 6 of 6

Compound: Cc1ncc(CNC(=O)N(CCCl)N=O)c(N)n1
- survivor count (dose: 50.0 mg/kg/injection, schedule: Q01DX001 (ip), vehicle: saline): 6 of 10
